Experimental data from the supplement of paper PMC10849652.
Some of the results follow.

By UniProt entry, the sequences of proteins in these tests, tags left out. Where a name states a change or a piece, a line headed by the entry shows the natural chain unless it says otherwise.
UniProt P49023, whole entry, looked up: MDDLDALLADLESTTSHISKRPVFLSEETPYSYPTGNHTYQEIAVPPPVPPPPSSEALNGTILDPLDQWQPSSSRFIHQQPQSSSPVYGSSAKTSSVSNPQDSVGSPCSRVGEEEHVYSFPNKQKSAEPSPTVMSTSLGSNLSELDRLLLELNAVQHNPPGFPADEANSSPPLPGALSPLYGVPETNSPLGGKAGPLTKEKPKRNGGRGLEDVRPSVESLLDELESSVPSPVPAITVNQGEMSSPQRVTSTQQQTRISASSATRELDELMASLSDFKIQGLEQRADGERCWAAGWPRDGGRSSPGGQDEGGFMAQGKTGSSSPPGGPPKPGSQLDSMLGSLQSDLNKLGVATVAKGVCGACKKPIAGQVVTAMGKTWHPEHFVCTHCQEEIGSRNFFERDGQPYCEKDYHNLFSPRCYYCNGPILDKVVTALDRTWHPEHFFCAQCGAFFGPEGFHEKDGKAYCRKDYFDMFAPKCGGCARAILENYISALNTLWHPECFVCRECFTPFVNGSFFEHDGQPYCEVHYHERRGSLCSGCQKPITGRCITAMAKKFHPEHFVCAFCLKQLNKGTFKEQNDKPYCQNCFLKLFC
UniProt P61289: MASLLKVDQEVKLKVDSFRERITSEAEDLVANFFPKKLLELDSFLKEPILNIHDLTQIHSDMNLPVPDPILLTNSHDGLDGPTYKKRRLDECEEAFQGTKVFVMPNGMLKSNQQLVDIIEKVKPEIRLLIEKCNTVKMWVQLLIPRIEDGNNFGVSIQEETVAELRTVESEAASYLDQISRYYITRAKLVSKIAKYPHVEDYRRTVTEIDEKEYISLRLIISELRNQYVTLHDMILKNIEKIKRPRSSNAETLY
UniProt P08575: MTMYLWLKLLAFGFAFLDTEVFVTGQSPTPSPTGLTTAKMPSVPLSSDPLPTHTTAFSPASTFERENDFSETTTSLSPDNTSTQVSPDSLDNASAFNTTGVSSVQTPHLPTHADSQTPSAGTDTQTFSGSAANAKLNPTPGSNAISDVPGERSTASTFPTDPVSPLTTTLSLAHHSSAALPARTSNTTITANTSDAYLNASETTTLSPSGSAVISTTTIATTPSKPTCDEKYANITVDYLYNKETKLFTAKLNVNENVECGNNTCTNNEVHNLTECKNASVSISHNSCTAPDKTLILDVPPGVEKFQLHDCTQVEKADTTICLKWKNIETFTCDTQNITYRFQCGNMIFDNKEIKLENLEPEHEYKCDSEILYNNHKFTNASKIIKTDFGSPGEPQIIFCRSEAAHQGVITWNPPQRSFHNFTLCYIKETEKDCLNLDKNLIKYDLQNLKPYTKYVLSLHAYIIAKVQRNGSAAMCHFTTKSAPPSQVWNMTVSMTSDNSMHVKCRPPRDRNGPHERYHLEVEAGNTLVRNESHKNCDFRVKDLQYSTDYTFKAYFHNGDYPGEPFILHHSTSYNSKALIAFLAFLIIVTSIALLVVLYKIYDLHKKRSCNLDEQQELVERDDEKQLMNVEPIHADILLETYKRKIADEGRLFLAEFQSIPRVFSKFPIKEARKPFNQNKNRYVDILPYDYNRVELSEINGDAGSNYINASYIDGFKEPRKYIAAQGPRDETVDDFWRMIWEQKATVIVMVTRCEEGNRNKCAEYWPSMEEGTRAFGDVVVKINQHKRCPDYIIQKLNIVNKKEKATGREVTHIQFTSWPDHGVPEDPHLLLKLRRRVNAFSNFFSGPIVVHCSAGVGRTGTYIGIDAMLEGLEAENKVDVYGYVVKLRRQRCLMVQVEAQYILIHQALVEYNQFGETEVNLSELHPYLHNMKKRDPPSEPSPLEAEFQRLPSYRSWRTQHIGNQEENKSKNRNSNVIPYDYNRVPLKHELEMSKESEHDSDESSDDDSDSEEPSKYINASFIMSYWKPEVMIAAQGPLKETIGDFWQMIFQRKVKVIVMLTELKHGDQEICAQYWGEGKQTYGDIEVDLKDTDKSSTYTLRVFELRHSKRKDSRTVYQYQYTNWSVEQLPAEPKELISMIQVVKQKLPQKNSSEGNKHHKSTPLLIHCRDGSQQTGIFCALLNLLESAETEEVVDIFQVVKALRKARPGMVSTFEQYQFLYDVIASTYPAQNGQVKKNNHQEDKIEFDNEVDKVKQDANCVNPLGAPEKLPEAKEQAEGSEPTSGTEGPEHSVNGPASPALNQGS
UniProt Q9UHX1: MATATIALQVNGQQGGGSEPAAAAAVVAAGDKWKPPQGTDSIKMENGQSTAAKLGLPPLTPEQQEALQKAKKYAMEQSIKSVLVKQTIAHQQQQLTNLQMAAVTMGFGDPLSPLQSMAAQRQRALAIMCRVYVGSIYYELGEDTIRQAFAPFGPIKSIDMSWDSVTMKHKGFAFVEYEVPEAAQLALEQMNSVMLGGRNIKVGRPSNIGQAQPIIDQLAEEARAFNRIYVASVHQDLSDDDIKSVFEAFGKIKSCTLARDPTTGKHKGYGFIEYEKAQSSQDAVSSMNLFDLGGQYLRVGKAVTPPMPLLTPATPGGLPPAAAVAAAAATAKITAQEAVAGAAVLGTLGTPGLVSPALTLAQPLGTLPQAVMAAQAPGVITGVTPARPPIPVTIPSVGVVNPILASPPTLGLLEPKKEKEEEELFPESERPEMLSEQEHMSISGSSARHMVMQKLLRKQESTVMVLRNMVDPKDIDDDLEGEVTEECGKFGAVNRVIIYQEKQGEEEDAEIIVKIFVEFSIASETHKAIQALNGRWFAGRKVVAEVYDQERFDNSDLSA
UniProt Q9Y6I8: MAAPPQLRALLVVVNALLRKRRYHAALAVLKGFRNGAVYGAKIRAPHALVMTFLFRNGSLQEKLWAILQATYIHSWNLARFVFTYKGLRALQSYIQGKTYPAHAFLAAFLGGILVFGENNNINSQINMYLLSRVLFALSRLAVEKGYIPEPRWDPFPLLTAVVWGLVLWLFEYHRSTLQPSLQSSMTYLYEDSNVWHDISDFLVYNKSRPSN
UniProt Q9BT73: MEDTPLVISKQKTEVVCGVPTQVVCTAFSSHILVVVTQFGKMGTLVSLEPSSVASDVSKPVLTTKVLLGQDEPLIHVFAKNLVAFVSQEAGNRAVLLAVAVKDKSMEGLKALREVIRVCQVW
UniProt Q53H96: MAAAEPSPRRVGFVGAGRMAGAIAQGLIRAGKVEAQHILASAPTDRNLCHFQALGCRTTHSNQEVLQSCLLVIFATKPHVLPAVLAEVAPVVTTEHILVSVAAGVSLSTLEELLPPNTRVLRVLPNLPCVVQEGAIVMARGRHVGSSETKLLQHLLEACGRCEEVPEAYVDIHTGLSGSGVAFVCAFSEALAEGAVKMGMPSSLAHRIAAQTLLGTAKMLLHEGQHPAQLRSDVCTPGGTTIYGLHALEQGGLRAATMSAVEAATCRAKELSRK
UniProt P60900, whole entry, looked up: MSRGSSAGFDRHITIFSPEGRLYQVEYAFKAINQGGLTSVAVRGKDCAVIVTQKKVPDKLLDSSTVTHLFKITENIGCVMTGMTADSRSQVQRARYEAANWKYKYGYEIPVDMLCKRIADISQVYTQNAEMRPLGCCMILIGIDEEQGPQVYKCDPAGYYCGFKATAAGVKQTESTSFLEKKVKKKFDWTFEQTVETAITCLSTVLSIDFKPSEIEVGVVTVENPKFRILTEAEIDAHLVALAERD
UniProt O75475: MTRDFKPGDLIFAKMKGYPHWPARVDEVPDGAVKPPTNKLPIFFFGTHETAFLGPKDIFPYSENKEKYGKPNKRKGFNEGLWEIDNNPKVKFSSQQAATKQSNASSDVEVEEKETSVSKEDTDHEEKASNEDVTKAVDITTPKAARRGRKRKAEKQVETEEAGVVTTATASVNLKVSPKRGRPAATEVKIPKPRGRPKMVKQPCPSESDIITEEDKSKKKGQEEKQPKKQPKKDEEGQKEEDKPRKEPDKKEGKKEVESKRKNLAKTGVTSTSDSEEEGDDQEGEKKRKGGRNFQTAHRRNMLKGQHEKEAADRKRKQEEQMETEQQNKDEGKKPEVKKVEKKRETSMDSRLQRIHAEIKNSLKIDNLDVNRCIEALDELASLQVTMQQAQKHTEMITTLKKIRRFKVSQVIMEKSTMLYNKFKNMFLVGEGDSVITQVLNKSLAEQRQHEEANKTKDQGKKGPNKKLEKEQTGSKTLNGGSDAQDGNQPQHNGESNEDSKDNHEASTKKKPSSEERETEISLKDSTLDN
UniProt P23219, whole entry, looked up: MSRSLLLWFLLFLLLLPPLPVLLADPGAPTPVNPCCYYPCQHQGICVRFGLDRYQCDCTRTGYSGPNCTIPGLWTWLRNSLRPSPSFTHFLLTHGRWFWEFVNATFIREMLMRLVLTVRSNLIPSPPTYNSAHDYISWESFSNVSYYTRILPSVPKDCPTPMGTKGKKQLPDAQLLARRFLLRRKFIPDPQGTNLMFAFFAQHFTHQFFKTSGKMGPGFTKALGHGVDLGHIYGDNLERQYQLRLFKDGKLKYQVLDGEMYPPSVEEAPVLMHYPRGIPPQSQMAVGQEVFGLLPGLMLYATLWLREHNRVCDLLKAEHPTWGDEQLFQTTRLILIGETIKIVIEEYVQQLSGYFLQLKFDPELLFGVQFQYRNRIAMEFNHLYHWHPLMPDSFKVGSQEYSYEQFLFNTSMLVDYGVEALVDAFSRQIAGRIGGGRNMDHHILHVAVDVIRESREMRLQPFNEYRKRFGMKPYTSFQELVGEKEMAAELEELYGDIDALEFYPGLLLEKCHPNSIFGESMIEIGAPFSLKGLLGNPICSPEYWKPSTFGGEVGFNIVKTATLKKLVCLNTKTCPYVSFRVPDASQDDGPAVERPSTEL
UniProt P09417: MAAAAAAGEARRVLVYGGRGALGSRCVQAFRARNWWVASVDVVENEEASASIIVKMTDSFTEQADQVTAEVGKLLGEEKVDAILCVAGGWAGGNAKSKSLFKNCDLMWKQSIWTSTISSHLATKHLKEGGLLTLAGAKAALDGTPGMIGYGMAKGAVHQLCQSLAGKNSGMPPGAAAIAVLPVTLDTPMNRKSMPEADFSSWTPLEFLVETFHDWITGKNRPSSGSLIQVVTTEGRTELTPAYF
UniProt Q08623: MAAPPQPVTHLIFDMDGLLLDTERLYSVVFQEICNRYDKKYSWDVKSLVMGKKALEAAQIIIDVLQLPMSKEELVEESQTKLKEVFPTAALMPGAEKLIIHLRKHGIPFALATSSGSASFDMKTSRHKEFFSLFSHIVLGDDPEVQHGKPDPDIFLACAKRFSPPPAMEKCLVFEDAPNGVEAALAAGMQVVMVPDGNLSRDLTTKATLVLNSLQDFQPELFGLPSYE
UniProt Q9BXR0: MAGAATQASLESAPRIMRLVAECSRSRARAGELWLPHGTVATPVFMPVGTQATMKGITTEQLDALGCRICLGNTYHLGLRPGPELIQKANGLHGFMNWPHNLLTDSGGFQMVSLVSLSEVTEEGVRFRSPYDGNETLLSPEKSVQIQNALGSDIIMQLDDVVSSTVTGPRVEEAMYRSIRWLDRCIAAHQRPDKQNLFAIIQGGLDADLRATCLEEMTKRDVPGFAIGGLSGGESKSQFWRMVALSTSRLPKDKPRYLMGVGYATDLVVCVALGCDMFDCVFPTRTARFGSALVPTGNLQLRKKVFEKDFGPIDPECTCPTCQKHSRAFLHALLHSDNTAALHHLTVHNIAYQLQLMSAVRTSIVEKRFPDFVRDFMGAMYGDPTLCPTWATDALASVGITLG
UniProt Q9ULZ3, whole entry, looked up: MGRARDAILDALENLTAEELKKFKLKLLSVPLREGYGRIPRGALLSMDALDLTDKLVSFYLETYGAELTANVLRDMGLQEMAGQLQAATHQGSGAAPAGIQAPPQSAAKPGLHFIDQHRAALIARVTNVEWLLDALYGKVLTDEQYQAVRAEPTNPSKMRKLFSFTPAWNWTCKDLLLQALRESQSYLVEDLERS
UniProt Q05209: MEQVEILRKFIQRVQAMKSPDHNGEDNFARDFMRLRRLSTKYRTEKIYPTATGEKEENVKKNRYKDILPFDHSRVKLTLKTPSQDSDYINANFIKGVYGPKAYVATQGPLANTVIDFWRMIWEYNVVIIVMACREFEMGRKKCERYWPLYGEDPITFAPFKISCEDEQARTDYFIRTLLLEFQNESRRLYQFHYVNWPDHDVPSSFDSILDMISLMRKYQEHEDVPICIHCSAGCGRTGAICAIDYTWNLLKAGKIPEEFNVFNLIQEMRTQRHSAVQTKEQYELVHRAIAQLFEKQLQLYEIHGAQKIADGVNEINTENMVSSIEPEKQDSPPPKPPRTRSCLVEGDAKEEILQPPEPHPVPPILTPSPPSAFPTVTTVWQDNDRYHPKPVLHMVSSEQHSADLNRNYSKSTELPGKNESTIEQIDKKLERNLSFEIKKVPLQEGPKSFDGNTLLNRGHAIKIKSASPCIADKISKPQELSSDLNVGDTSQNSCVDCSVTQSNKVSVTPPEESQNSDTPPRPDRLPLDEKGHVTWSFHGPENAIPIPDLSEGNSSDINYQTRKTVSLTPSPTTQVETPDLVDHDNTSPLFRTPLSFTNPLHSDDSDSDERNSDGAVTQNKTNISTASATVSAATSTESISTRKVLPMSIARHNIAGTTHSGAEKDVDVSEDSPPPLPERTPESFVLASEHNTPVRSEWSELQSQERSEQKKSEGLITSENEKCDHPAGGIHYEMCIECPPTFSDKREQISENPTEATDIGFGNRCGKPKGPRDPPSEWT

Tests used:
Test in all cases: log2 fold change, soluble protein after heating vs DMSO (PISA); higher = thermal stabilisation; K562 cells, 10 uM, 30 min; active = over 0.2 and 3.5 SD of the protein, either way, in both replicates (recomputed)
[1] = compound: NC(=O)Nc1cc(-c2cccc(F)c2)sc1C(=O)N[C@H]1CCCNC1
Procedure, shortened: (§1)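 Thermal stability values are relative to control samples and come from duplicates. They are expressed as log2 fold changes. For measurement, K562 cells (2×10^6 cells/mL) received 10 μM compound for 30 min, and aliquots were heated for 3 min over 48°C-58°C, pooled, and extracted at 4°C in PBS with 0.5% NP-40. Soluble protein, the supernatant after 21,000xg for 90 min, was quantified by TMTpro 16plex LC-MS/MS with equalised channel sums.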

[2] = compound: NC(=O)c1cnc(N[C@@H]2CCCC[C@@H]2N)nc1Nc1cccc(-n2nccn2)c1
Procedure, shortened: as §1

[3] = compound: NC1(c2ccc(-c3nc4ccn5c(=O)[nH]nc5c4cc3-c3ccccc3)cc2)CCC1
Procedure, shortened: as §1

[4] = compound: NCC(=O)Nc1ccc(-n2nc(C(F)(F)F)cc2-c2ccc3c(ccc4ccccc43)c2)cc1
Procedure, shortened: as §1

entinostat = compound: Nc1ccccc1NC(=O)c1ccc(CNC(=O)OCc2cccnc2)cc1 [entinostat]
Procedure, shortened: as §1

vorinostat = compound: O=C(CCCCCCC(=O)Nc1ccccc1)NO [vorinostat]
Procedure, shortened: as §1

citarinostat = compound: O=C(CCCCCCNC(=O)c1cnc(N(c2ccccc2)c2ccccc2Cl)nc1)NO [citarinostat]
Procedure, shortened: as §1

silmitasertib = compound: O=C(O)c1ccc2c(c1)nc(Nc1cccc(Cl)c1)c1ccncc12 [silmitasertib]
Procedure, shortened: as §1

[5] = compound: O=C1NC(=O)C(c2cnc3ccccn23)=C1c1cn2c3c(cc(F)cc13)CN(C(=O)N1CCCCC1)CC2
Procedure, shortened: as §1

[6] = compound: c1cc(OCCN2CCCCC2)cc(-c2n[nH]c3ccc(-c4nnc[nH]4)cc23)c1
Procedure, shortened: as §1

Measured: log2 fold change

PXN (UniProt P49023)
inactive: [1] 0.009 | [2] 0.007 | [3] 0.028 | [4] 0.087 | entinostat -0.002 | vorinostat -0.008 | citarinostat 0.029 | silmitasertib -0.036 | [5] 0 | [6] 0.011

PSMD12 (UniProt O00232)
inactive: [1] -0.001 | [2] 0.019 | [3] -0.061 | [4] 0.05 | entinostat 0.001 | vorinostat 0.003 | citarinostat -0.012 | silmitasertib -0.024 | [5] 0.045 | [6] -0.09

PSME3 isoform 2 (UniProt P61289)
inactive: [1] 0.05 | [2] 0.021 | [3] 0.063 | [4] 0.073 | entinostat 0.004 | vorinostat -0.02 | citarinostat -0.011 | silmitasertib -0.042 | [5] 0.006 | [6] -0.015

PURA (UniProt Q00577)
inactive: [1] 0.015 | [2] 0.105 | [3] 0.377 | [4] 0.036 | entinostat -0.085 | vorinostat -0.079 | citarinostat -0.141 | silmitasertib 0.248 | [5] 0.185 | [6] -0.114

PTPRC (UniProt P08575)
inactive: [1] -0.136 | [2] 0.051 | [3] 0.023 | [4] 0.005 | entinostat -0.063 | vorinostat -0.045 | citarinostat 0.015 | silmitasertib -0.015 | [5] -0.033 | [6] -0.053

PTPN11 isoform 1 (UniProt Q06124)
inactive: [1] -0.043 | [2] 0.016 | [3] -0.045 | [4] -0.014 | entinostat 0.014 | vorinostat -0.032 | citarinostat 0.027 | silmitasertib 0.028 | [5] -0.006 | [6] -0.013

PSPC1 (UniProt Q8WXF1)
inactive: [1] -0.001 | [2] -0.039 | [3] 0.021 | [4] -0.027 | entinostat -0.014 | vorinostat 0.14 | citarinostat 0.067 | silmitasertib -0.032 | [5] -0.074 | [6] -0.057

PSMB5 (UniProt P28074)
inactive: [1] 0.118 | [2] 0.05 | [3] 0.038 | [4] 0.121 | entinostat 0.017 | vorinostat -0.019 | citarinostat 0.032 | silmitasertib -0.02 | [5] 0.071 | [6] -0.023

PUF60 (UniProt Q9UHX1)
inactive: [1] -0.112 | [2] -0.029 | [3] -0.035 | [4] -0.132 | entinostat 0.049 | vorinostat 0.028 | citarinostat 0.079 | silmitasertib -0.098 | [5] -0.025 | [6] -0.092

PXMP4 (UniProt Q9Y6I8)
inactive: [1] 0.035 | [2] -0.031 | [3] -0.064 | [4] 0.005 | entinostat -0.021 | vorinostat -0.013 | citarinostat 0.034 | silmitasertib 0.017 | [5] -0.063 | [6] -0.034

PSPH (UniProt P78330)
inactive: [1] 0.017 | [2] -0.029 | [3] -0.008 | [4] 0.003 | entinostat -0.045 | vorinostat -0.013 | citarinostat 0.019 | silmitasertib -0.006 | [5] -0.008 | [6] -0.012

PSMD2 (UniProt Q13200)
inactive: [1] -0.018 | [2] 0.012 | [3] 0.005 | [4] 0.038 | entinostat -0.024 | vorinostat 0.01 | citarinostat -0.006 | silmitasertib -0.018 | [5] 0.03 | [6] -0.082

PTGES2 (UniProt Q9H7Z7)
inactive: [1] -0.048 | [2] -0.012 | [3] -0.066 | [4] -0.011 | entinostat -0.019 | vorinostat 0.016 | citarinostat 0.045 | silmitasertib 0.018 | [5] -0.066 | [6] -0.013

PSMD4 (UniProt Q5VWC4)
inactive: [1] 0.04 | [2] 0.031 | [3] -0.018 | [4] 0.038 | entinostat 0.02 | vorinostat 0.283 | citarinostat 0.066 | silmitasertib 0.018 | [5] 0.054 | [6] -0.149

PSMG3 (UniProt Q9BT73)
inactive: [1] -0.011 | [2] 0.042 | [3] -0.001 | [4] 0.085 | entinostat 0.002 | vorinostat 0.011 | citarinostat 0.07 | silmitasertib -0.023 | [5] -0.042 | [6] -0.029

PYCR3 (UniProt Q53H96)
inactive: [1] 0.052 | [2] -0.005 | [3] 0.015 | [4] 0.02 | entinostat 0.011 | vorinostat 0.022 | citarinostat 0.026 | silmitasertib -0.002 | [5] 0.08 | [6] 0.046

PSMA6 (UniProt P60900)
inactive: [1] 0.015 | [2] 0.003 | [3] 0.057 | [4] 0.036 | entinostat -0.008 | vorinostat -0.032 | citarinostat -0.003 | silmitasertib 0.063 | [5] -0.004 | [6] -0.048

PRUNE1 (UniProt Q86TP1)
inactive: [1] -0.004 | [2] -0.012 | [3] -0.179 | [4] 0.052 | entinostat 0.041 | vorinostat 0.04 | citarinostat 0.006 | silmitasertib 0.138 | [5] -0.107 | [6] 0.018

QKI (UniProt Q96PU8)
inactive: [1] -0.057 | [2] -0.137 | [3] -0.086 | [4] -0.084 | entinostat 0.006 | vorinostat 0.06 | citarinostat 0.026 | silmitasertib -0.012 | [5] -0.071 | [6] 0.064

PSIP1 (UniProt O75475)
inactive: [1] 0.149 | [2] -0.015 | [3] 0.155 | [4] 0.052 | entinostat -0.012 | vorinostat 0.013 | citarinostat -0.12 | silmitasertib 0.017 | [5] 0.114 | [6] -0.118

Quoted from the results shown (5 entries):
PSME3 isoform 2 (UniProt P61289)
inactive: [1] 0.05 | [2] 0.021 | [3] 0.063 | [4] 0.073 | entinostat 0.004 | vorinostat -0.02 | citarinostat -0.011 | silmitasertib -0.042 | [5] 0.006 | [6] -0.015

PURA (UniProt Q00577)
inactive: [1] 0.015 | [2] 0.105 | [3] 0.377 | [4] 0.036 | entinostat -0.085 | vorinostat -0.079 | citarinostat -0.141 | silmitasertib 0.248 | [5] 0.185 | [6] -0.114

PTPRC (UniProt P08575)
inactive: [1] -0.136 | [2] 0.051 | [3] 0.023 | [4] 0.005 | entinostat -0.063 | vorinostat -0.045 | citarinostat 0.015 | silmitasertib -0.015 | [5] -0.033 | [6] -0.053

PTPN11 isoform 1 (UniProt Q06124)
inactive: [1] -0.043 | [2] 0.016 | [3] -0.045 | [4] -0.014 | entinostat 0.014 | vorinostat -0.032 | citarinostat 0.027 | silmitasertib 0.028 | [5] -0.006 | [6] -0.013

PSPC1 (UniProt Q8WXF1)
inactive: [1] -0.001 | [2] -0.039 | [3] 0.021 | [4] -0.027 | entinostat -0.014 | vorinostat 0.14 | citarinostat 0.067 | silmitasertib -0.032 | [5] -0.074 | [6] -0.057

(listing goes on)

PURB (UniProt Q96QR8)
inactive: [1] 0.077 | [2] 0.004 | [3] 0.269 | [4] 0.414 | entinostat 0.514 | vorinostat -0.145 | citarinostat -0.079 | silmitasertib 0.09 | [5] 0.314 | [6] -0.098

PTGS1 isoform 6 (UniProt P23219)
inactive: [1] 0.002 | [2] -0.043 | [3] 0.012 | [4] -0.013 | entinostat -0.01 | vorinostat -0.035 | citarinostat 0.033 | silmitasertib 0.028 | [5] -0.066 | [6] -0.084

PSMD7 (UniProt P51665)
inactive: [1] -0.04 | [2] 0.001 | [3] -0.035 | [4] 0.029 | entinostat -0.049 | vorinostat -0.002 | citarinostat -0.048 | silmitasertib 0.016 | [5] 0.051 | [6] -0.089

QDPR (UniProt P09417)
inactive: [1] -0.011 | [2] -0.012 | [3] -0.012 | [4] 0.016 | entinostat -0.019 | vorinostat -0.026 | citarinostat 0.029 | silmitasertib -0.034 | [5] -0.02 | [6] -0.052

PUDP isoform 4 (UniProt Q08623)
inactive: [1] -0.011 | [2] 0.007 | [3] -0.041 | [4] 0.094 | entinostat 0.017 | vorinostat -0.001 | citarinostat 0.046 | silmitasertib -0.038 | [5] -0.13 | [6] 0.023

PSMB4 (UniProt P28070)
inactive: [1] 0.029 | [2] -0.01 | [3] 0.068 | [4] 0.01 | entinostat -0.036 | vorinostat -0.019 | citarinostat 0.008 | silmitasertib 0.002 | [5] 0.022 | [6] -0.014

QTRT1 (UniProt Q9BXR0)
inactive: [1] -0.005 | [2] -0.007 | [3] -0.01 | [4] -0.018 | entinostat 0 | vorinostat -0.007 | citarinostat 0.033 | silmitasertib -0.013 | [5] -0.031 | [6] -0.027

PYCARD (UniProt Q9ULZ3)
inactive: [1] -0.004 | [2] 0.014 | [3] -0.022 | [4] -0.001 | entinostat 0.02 | vorinostat -0.058 | citarinostat 0.035 | silmitasertib 0.013 | [5] -0.086 | [6] -0.063

PVR (UniProt P15151)
inactive: [1] -0.047 | [2] 0.116 | [3] 0.002 | [4] 0.134 | entinostat -0.019 | vorinostat -0.001 | citarinostat 0.018 | silmitasertib -0.055 | [5] -0.053 | [6] -0.073

PTPN12 (UniProt Q05209)
inactive: [1] 0.037 | [2] -0.023 | [3] -0.1 | [4] -0.012 | entinostat 0.038 | vorinostat -0.01 | citarinostat 0.019 | silmitasertib 0.163 | [5] 0.014 | [6] -0.015
